# Laboratory results reported in PubChem BioAssay AID248 (DTP/NCI, 2004).
# The list is a part of this screen's results and no random one: it is rich in T/C values a quarter to a half above the control, in often repeated tests (any T/C) and in doses without a T/C. Further doses and runs are listed elsewhere. T/C is the treated group as % of the vehicle group. Some doses have a count of surviving animals in place of a T/C: the source files T/C as zero there, which appears to mark a toxic dose or a test without result, not a measured value. Some doses without a T/C left all or most animals alive at the check, yet need not have been tolerated: the source hardly ever lists a survival T/C far under the control, and the zero likely stands for such cases as well. Survivors were counted at the toxicity check, usually on the fifth day, unless a day is given; later deaths do not show. Schedules are NCI's codes, read here as Q, the interval in days (D) or hours (H), X, the number of doses. Brackets with × give the number of equal values in this list. For survival time, this PubChem deposit counts one and a half times the control or more as active, and values a quarter to a half above the control carry no call in these data; other NCI protocols may use other cut-offs. Some T/C values are followed by the survivors on the day toxicity was checked, most often the fifth; without a count, all were alive then. Some entries were tested several times; the values are given in rising order.
# Test system: L1210 leukemia ip in BDF1 mice, survival T/C
# Assay: NCI In Vivo Anticancer Drug Screen. Data for tumor model L1210 Leukemia (intraperitoneal) in B6D2F1 (BDF1) mice
# Conditions: T/C endpoint: mean survival time, higher T/C = longer survival
# [1] = dose: 400.0 mg/kg/injection, schedule: Q01DX009 (ip), vehicle: saline with Tween-80
# [2] = dose: 400.0 mg/kg/injection, schedule: Q01DX001 (ip), vehicle: saline
# [3] = dose: 400.0 mg/kg/injection, schedule: Q04DX003 (ip), vehicle: Klucel (hydroxypropylcellulose) (HPC)
# [4] = dose: 400.0 mg/kg/injection, schedule: Q01DX009 (ip), vehicle: Klucel (hydroxypropylcellulose) (HPC)
# [5] = dose: 100.0 mg/kg/injection, schedule: Q04DX003 (ip), vehicle: saline with Tween-80
# [6] = dose: 400.0 mg/kg/injection, schedule: Q04DX003 (ip), vehicle: saline with Tween-80
# [7] = dose: 400.0 mg/kg/injection, schedule: Q04DX003 (ip), vehicle: saline
# [8] = dose: 200.0 mg/kg/injection, schedule: Q04DX003 (ip), vehicle: saline with Tween-80
# [9] = dose: 100.0 mg/kg/injection, schedule: Q01DX009 (ip), vehicle: saline with Tween-80
compound,measurement,setting,value
Nc1cnccc1Nc1ccc(-c2ccccc2)cc1,survivor count,"dose: 200.0 mg/kg/injection, schedule: Q01DX009 (ip), vehicle: saline with Tween-80",1 of 6
same,survivor count,[1],0 of 6
O=C1CC2CCC(C1)N2CC1COc2ccccc2O1 (centres undefined),survivor count,[2],0 of 6
COc1ccc(CNc2ccccc2C(=O)O)cc1OC,survivor count,"dose: 200.0 mg/kg/injection, schedule: Q01DX001 (ip), vehicle: saline",4 of 4
OCCN(CCO)Cc1cc(Cl)c2cccnc2c1O,survivor count,"dose: 300.0 mg/kg/injection, schedule: Q01DX001 (ip), vehicle: saline",2 of 6
CCCCCCCCCCCCCCCCOc1ccc(CC)cc1,survivor count,"dose: 200.0 mg/kg/injection, schedule: Q04DX003 (ip), vehicle: Klucel (hydroxypropylcellulose) (HPC)",5 of 6
same,survivor count,[3],6 of 6
CC[N+](CC)(CC)CC(=O)c1ccc(Br)cc1,survivor count,"dose: 200.0 mg/kg/injection, schedule: Q04DX002 (ip), vehicle: saline with Tween-80",0 of 3
same,survivor count,"dose: 400.0 mg/kg/injection, schedule: Q04DX002 (ip), vehicle: saline with Tween-80",0 of 3
CNC(=O)Oc1cc2ccccc2cc1C(=O)Nc1cc(OC)ccc1OC,survivor count,[4],6 of 6
CC(C)C1=CC2=CCC3C(C)(C(N)=O)CCCC3(C)C2CC1CC#N (centres undefined),survivor count,[5],6 of 6
CCCN(CCC)C(=O)OCC,survivor count,[1],3 of 6
CNc1nc2nc[nH]c2c(=S)n1C,survivor count,[2],0 of 6
CCCc1cc(C(C)=O)c[n+](C2OC(COC(C)=O)C(OC(C)=O)C(OC(C)=O)C2OC(C)=O)c1 (centres undefined),survivor count,"dose: 200.0 mg/kg/injection, schedule: Q01DX005 (ip), vehicle: water",3 of 6
O=C1NC(c2cccs2)(c2cccs2)C(=O)N1Cl,survivor count,"dose: 100.0 mg/kg/injection, schedule: Q01DX009 (ip), vehicle: water",3 of 6
same,survivor count,"dose: 200.0 mg/kg/injection, schedule: Q04DX003 (ip), vehicle: water",3 of 6
same,survivor count,"dose: 400.0 mg/kg/injection, schedule: Q04DX003 (ip), vehicle: water",0 of 6
NC(=O)NN=C(CS)CS,survivor count,"dose: 64.0 mg/kg/injection, schedule: Q01DX015 (ip), vehicle: carboxymethylcellulose (CMC)",1 of 6
same,survivor count,"dose: 100.0 mg/kg/injection, schedule: Q01DX001 (ip), vehicle: other",3 of 6
same,survivor count,"dose: 200.0 mg/kg/injection, schedule: Q01DX001 (ip), vehicle: other",0 of 6
same,survivor count,"dose: 400.0 mg/kg/injection, schedule: Q01DX001 (ip), vehicle: other",0 of 6
CN(C)C(=S)[S][Sn]([c]1ccccc1)([c]1ccccc1)[c]1ccccc1,survivor count,"dose: 20.0 mg/kg/injection, schedule: Q01DX001 (ip), vehicle: steroid suspending solution",6 of 6
same,survivor count,"dose: 20.0 mg/kg/injection, schedule: Q04DX003 (ip), vehicle: saline with Tween-80",4 of 6
same,survivor count,"dose: 40.0 mg/kg/injection, schedule: Q04DX003 (ip), vehicle: Klucel (hydroxypropylcellulose) (HPC)",2 of 6
same,survivor count,"dose: 40.0 mg/kg/injection, schedule: Q04DX003 (ip), vehicle: saline with Tween-80",3 of 6
same,survivor count,"dose: 80.0 mg/kg/injection, schedule: Q01DX001 (ip), vehicle: steroid suspending solution",4 of 6
same,survivor count,"dose: 80.0 mg/kg/injection, schedule: Q04DX003 (ip), vehicle: saline with Tween-80",0 of 6
same,survivor count,"dose: 100.0 mg/kg/injection, schedule: Q01DX001 (ip), vehicle: steroid suspending solution",3 of 6
same,survivor count,"dose: 200.0 mg/kg/injection, schedule: Q01DX001 (ip), vehicle: steroid suspending solution",0 of 6
same,survivor count,"dose: 400.0 mg/kg/injection, schedule: Q01DX001 (ip), vehicle: steroid suspending solution",0 of 6
NC(=O)c1ccc[n+](CCCl)c1,survivor count,"dose: 250.0 mg/kg/injection, schedule: Q01DX010 (ip), vehicle: saline",4 of 6
same,survivor count,"dose: 500.0 mg/kg/injection, schedule: Q01DX010 (ip), vehicle: saline",0 of 6
O=[N+]([O-])c1ccc(-c2nn[nH]n2)cc1,survivor count,[6],6 of 6
same,T/C,[7],132 % of control [4 of 6 alive]
CCCCCCCCCCCCCCCC(=O)NCCO,survivor count,"dose: 100.0 mg/kg/injection, schedule: Q04DX003 (ip), vehicle: Klucel (hydroxypropylcellulose) (HPC)",6 of 6
same,survivor count,[3],6 of 6
CSc1ccc(-c2nc3ncnc(N)c3[nH]2)cc1,survivor count,"dose: 100.0 mg/kg/injection, schedule: Q01DX001 (ip), vehicle: gum acacia",6 of 6
CC(=O)OCC(=O)[C@@]1(O)CC[C@H]2[C@@H]3CCC4=CC(=O)C=C[C@]4(C)[C@H]3C(=O)C[C@@]21C,survivor count,"dose: 385.0 mg/kg/injection, schedule: Q01DX009 (ip), vehicle: Klucel (hydroxypropylcellulose) (HPC)",3 of 6
C=C=CC(C)(C)C,survivor count,"dose: 100.0 mg/kg/injection, schedule: Q04DX003 (ip), vehicle: saline",3 of 6
CC(=O)NC(C)Cc1ccc2c(c1)OCO2 (centres undefined),survivor count,[4],0 of 6
S=c1nc[nH]c2c1N=CNN2,survivor count,"dose: 50.0 mg/kg/injection, schedule: Q01DX001 (ip), vehicle: carboxymethylcellulose (CMC)",0 of 4
same,survivor count,"dose: 80.0 mg/kg/injection, schedule: Q01DX001 (ip), vehicle: carboxymethylcellulose (CMC)",0 of 6
same,survivor count,"dose: 100.0 mg/kg/injection, schedule: Q01DX001 (ip), vehicle: carboxymethylcellulose (CMC)",0 of 4
same,survivor count,"dose: 200.0 mg/kg/injection, schedule: Q01DX001 (ip), vehicle: carboxymethylcellulose (CMC)",0 of 4
same,survivor count,"dose: 400.0 mg/kg/injection, schedule: Q01DX001 (ip), vehicle: carboxymethylcellulose (CMC)",0 of 6
Cc1ccc(NC(=O)C(Br)C(Br)C(=O)O)cc1Cl (centres undefined),survivor count,[1],0 of 6
O=C(CC(=O)Nc1ccc([N+](=O)[O-])cc1)Nc1ccc([N+](=O)[O-])cc1,survivor count,[8],6 of 6
Cc1cccc(C(N)=S)n1,survivor count,[4],0 of 6
CCC(C)c1ccc(-c2ccc(OC)cc2)cc1 (centres undefined),survivor count,[6],6 of 6
CN(C)CCCN1CCC2(CCCC(C(F)(F)F)C2)CC1 (centres undefined),survivor count,[2],1 of 4
NC(C[Se][Se]CC(N)C(=O)O)C(=O)O (centres undefined),survivor count,"dose: 25.0 mg/kg/injection, schedule: Q04DX002 (ip), vehicle: saline",0 of 3
same,survivor count,"dose: 50.0 mg/kg/injection, schedule: Q04DX002 (ip), vehicle: saline",0 of 3
OCC1OC(n2ccc3c([Se])ncnc32)C(O)C1O (centres undefined),survivor count,"dose: 200.0 mg/kg/injection, schedule: Q01DX005 (ip), vehicle: saline",1 of 6
CCC(O)C[As](=O)(O)c1ccccc1OC (centres undefined),survivor count,"dose: 25.0 mg/kg/injection, schedule: Q04DX003 (ip), vehicle: saline with Tween-80",5 of 6
same,survivor count,"dose: 50.0 mg/kg/injection, schedule: Q04DX003 (ip), vehicle: saline with Tween-80",1 of 6
same,survivor count,[5],0 of 6 (2×)
same,survivor count,[8],0 of 6
same,survivor count,[6],0 of 6
Cc1ccc(Cl)cc1NC(=O)Nc1ccc(F)c([N+](=O)[O-])c1,survivor count,"dose: 50.0 mg/kg/injection, schedule: Q01DX009 (ip), vehicle: saline with Tween-80",6 of 6
same,T/C,[9],"89, 90 [2 of 3 alive], 101 % of control"
same,survivor count,[9],6 of 6
same,survivor count,[5],6 of 6
Cc1ccc(C2(C(=O)O)CCCCC2)cc1,survivor count,[3],3 of 6
CCCC(N=Cc1ccccc1O)C(=O)O.CCCC(N=Cc1ccccc1O)C(=O)O.[Fe] (centres undefined),survivor count,"dose: 100.0 mg/kg/injection, schedule: Q01DX009 (ip), vehicle: saline",2 of 6
same,survivor count,"dose: 200.0 mg/kg/injection, schedule: Q04DX003 (ip), vehicle: saline",2 of 6
same,survivor count,[7],1 of 6
O=[N+]([O-])c1[nH]c(Cl)nc1Cl,survivor count,"dose: 100.0 mg/kg/injection, schedule: Q01DX001 (ip), vehicle: saline with Tween-80",2 of 6
same,survivor count,"dose: 200.0 mg/kg/injection, schedule: Q01DX001 (ip), vehicle: saline with Tween-80",0 of 6
same,survivor count,"dose: 400.0 mg/kg/injection, schedule: Q01DX001 (ip), vehicle: saline with Tween-80",0 of 6
